Laboratory results reported in patent US7320785B2, “Compositions and methods for modulation of DARPP-32 phosphorylation” (The Rockefeller University, priority 2001, dated 2008).
For some of these results: At least one read-out could not be matched to a standard name with certainty. Marks after values point to notes of the source that are not given here. For some of these results: At least one structure is not confirmed: it was looked up by name or label, or the drawing left a doubt.

Key:
DARPP-32 [1] = test: DARPP-32 phosphorylation in mouse brain slices, immunoblotting with phosphorylation state-specific antibodies; conditions: neostriatal slices, concentration not given
DARPP-32 [2] = conditions: chronic administration in rats; cited from earlier work

With `CCc1[nH]c2ccc(OC)cc2c1CCN(C)C` [EMDT, 2-ethyl-5-methoxy-N,N-dimethyltryptamine] the “Percent Phospho-Ser137” value (DARPP-32 [1]; 2 min incubation) was 103(5.5) Percent, the “Percent Phospho-Thr34” value (DARPP-32 [1]; 2 min incubation) was 301(39.5)* Percent and the “Percent Phospho-Thr75” value (DARPP-32 [1]; 10 min incubation) was 76(7.6)* Percent.

For `COC(=O)[C@H]1[C@@H](OC(=O)c2ccccc2)C[C@@H]2CC[C@H]1N2C` [cocaine], the “frontal cortex levels of DARPP-32 immunoreactivity” value (DARPP-32 [2]) is given as “without effects”.
